Assay results published in publication PMC8967061.
Results are given in words; binding and its absence hold for the method and conditions named.

Protein sequences, listed by entry. Tags and fused reporters are not part of them. Residues count along the entry.
UniProt P08603, residues 19-1231: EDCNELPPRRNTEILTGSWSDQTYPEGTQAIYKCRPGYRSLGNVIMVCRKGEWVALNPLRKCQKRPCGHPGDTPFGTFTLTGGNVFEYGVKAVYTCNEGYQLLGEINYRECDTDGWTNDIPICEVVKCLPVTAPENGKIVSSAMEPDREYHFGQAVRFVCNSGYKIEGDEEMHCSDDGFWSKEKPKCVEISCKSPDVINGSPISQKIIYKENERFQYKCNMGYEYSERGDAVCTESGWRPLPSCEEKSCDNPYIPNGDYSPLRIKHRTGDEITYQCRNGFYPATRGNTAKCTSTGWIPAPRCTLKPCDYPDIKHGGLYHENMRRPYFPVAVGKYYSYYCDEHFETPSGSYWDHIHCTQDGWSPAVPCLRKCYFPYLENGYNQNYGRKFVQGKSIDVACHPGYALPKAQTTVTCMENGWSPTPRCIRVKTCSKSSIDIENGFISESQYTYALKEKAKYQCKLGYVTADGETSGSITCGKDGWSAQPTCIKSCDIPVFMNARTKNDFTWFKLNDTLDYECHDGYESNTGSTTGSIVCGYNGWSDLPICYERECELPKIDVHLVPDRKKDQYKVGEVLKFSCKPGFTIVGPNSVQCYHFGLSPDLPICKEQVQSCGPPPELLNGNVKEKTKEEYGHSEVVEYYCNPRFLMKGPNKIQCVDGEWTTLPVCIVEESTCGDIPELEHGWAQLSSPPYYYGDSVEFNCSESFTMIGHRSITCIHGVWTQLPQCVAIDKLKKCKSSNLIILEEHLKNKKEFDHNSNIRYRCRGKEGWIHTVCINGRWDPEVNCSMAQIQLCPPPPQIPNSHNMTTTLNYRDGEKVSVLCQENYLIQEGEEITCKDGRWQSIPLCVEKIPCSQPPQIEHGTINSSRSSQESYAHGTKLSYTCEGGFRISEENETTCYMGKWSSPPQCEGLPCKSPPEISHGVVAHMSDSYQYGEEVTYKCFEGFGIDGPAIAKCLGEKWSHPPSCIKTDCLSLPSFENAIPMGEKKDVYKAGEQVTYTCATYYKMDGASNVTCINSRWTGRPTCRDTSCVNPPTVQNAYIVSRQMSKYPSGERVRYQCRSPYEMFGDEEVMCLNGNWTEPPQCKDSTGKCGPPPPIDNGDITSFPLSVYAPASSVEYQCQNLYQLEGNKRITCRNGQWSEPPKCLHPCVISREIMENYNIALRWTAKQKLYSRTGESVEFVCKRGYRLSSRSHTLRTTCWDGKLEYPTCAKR

Biological target: Factor H, full length (human) (UniProt P08603)
Assay: MST; full-length FH labelled with RED-tris-NTA dye, FhbA proteins titrated, PBS/0.025% Tween-20, 22 C; both purified

Question: With “BhFhbA Phe154Ala (from UniProt W5SB08 44-202) (domain or fragment)” as the substance, how does the binding read?
Answer: no binding
